In all, about 350,000 compounds went through this assay and about 6,000 (1.7%) were called active. Inconclusive results, whose numbers are uncertain, are shown with a selection of clear calls. Rule as the data show it: active = CPE inhibition above about 20% (passing the limit was not always enough); inconclusive = no clear call, values can overlap the other calls; tested in BHK-21 cells.
Test: protection of cells from dengue 2 killing – plate reader, single concentration, primary screen (AID 651640);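 also: 0% = median of neutral control wells and 100% = median of positive control wells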
Conditions: DENV2-infected cells, cytopathic effect rescue, at 9.99 µM, active compounds read high

Row | SMILES | CPE inhibition
1 | CC(=O)Nc1c2c(nn1-c1ccc(F)cc1)CSC2 | inconclusive: 22.9%
2 | C[C@H]1CN([C@@H](C)CO)C(=O)c2cc(C#CCN(C)C)cnc2O[C@H]1CN(C)C | inconclusive: 30%
3 | C[C@H](CO)N1C[C@H](C)[C@@H](CN(C)CC2CC2)Oc2c(NS(=O)(=O)c3ccc(F)cc3)cccc2C1=O | inconclusive: 21.9%
4 | O=C1CSCN1c1ccc(Cl)cc1 | inconclusive: 21%
5 | N#C[C@H]1[C@H](c2ccccc2)[C@@H](CO)N1C(=O)c1cccnc1 | inactive: -0.249%
6 | O=C1O[C@@H](c2ccccc2)[C@@H](c2ccccc2)N2[C@@H](c3ccc(O)cc3)[C@]3(C(=O)Nc4ccc(C#CC5(O)CCCCCC5)cc43)[C@@H](C(=O)N3CCN(c4ncccn4)CC3)[C@H]12 | inactive: -7.92%
7 | COc1ccc2cc(C3CC(c4ccco4)=NN3C(=O)CCC(=O)O)c(Cl)nc2c1 (stereo not given) | inconclusive: 26.9%
8 | CO[C@@H]1CN(C)C(=O)c2cc(NS(C)(=O)=O)ccc2OC[C@H](C)N(Cc2cocn2)C[C@H]1C | inactive: 9.95%
9 | COc1cccc(OC)c1C(=O)Nc1ccncc1 | inconclusive: 20.2%
10 | CN1CCN(c2ncnc3c2ncn3[C@H]2CN(Cc3ccc(-c4ccccc4)cc3)C[C@@H](CO)O2)CC1 | inconclusive: 29.4%
11 | C[C@H](CO)N1C[C@H](C)[C@H](CN(C)CC2CCCCC2)Oc2ccc(NC(=O)Cc3ccccc3)cc2C1=O | inconclusive: 28.5%
12 | C[C@@H]1CN([C@@H](C)CO)C(=O)CCCn2nncc2CO[C@@H]1CN(C)CC1CCCCC1 | active: 58.9%
13 | OC[C@H]1[C@H](c2ccc(/C=C/c3ccccc3)cc2)[C@H]2CN(Cc3cccnc3)CCCCN21 | inconclusive: 38.3%
14 | O=C(C[C@@H]1CC[C@@H]2[C@H](COC[C@H](O)CN2S(=O)(=O)c2ccc(Cl)cc2)O1)NCCN1CCCCC1 | inconclusive: 41.1%
15 | Cc1[nH]n(-c2ccccc2)c(=O)c1C(c1ccccc1[N+](=O)[O-])C(C#N)C#N (stereo not given) | inconclusive: 26.6%
16 | COc1ccc(N2c3ccccc3CN(Cc3ccccc3)[C@@H](C)[C@H]2Cc2cccnc2)cc1 | inconclusive: 50.4%
17 | CCc1ccc(C(=O)CCC(=O)Nc2cccc(S(=O)(=O)N3CCCCC3)c2)cc1 | inconclusive: 20.3%
18 | Cc1ccc(C2=NOC(C)(c3nnc(-c4ccncc4)o3)C2)cc1 (stereo not given) | active: 58.1%
19 | COc1ccccc1/C=C/C(=O)Nc1cccc(S(=O)(=O)N2CCOCC2)c1 | inconclusive: 38.8%
20 | CN(C)C(=O)C[C@@H]1CC[C@@H]2[C@H](COc3ccc(NC(=O)Nc4cccc(Cl)c4)cc3C(=O)N2C)O1 | inactive: 3.11%
21 | CN(CC(=O)Nc1cccc(F)c1)C(=O)c1cc(-c2ccco2)nc2ccccc12 | inconclusive: 21.2%
22 | COc1ccc(CCNc2cc(C)nc3c(-c4ccccc4OC)cnn23)cc1OC | inconclusive: 20.1%
23 | O=C(Nc1ccc(N2CCN(C(=O)c3ccccc3)CC2)cc1)c1cc([N+](=O)[O-])ccc1N1CCOCC1 | inconclusive: 39.9%

Structural class: the compounds so far containing a cyano group.
Row | SMILES | CPE inhibition
5 | N#C[C@H]1[C@H](c2ccccc2)[C@@H](CO)N1C(=O)c1cccnc1 | inactive: -0.249%
15 | Cc1[nH]n(-c2ccccc2)c(=O)c1C(c1ccccc1[N+](=O)[O-])C(C#N)C#N (stereo not given) | inconclusive: 26.6%

Carrying on:

Row | SMILES | CPE inhibition
24 | O=C(O)c1ccccc1-c1ccc(C=c2sc3nc4cc(Br)cnc4n3c2=O)o1 | inconclusive: 39.2%
25 | C[C@H](CO)N1C[C@H](C)[C@@H](CN(C)S(=O)(=O)c2cn(C)cn2)Oc2ncc(C3=CCCC3)cc2C1=O | active: 22.9%
26 | CC[C@]12c3[nH]c4cc(CCC(=O)N(C)C)ccc4c3CCN1C(=O)[C@@H](CC(=O)NCC13CC4CC(CC(C4)C1)C3)C[C@@H]2C(=O)N1CCN(C(=O)C2CC2)CC1 | inconclusive: 21.3%
27 | CN1CCOC(c2ccccc2)c2ccccc2C1 (stereo not given) | inconclusive: 59.4%
28 | C[C@@H]1CN([C@@H](C)CO)C(=O)c2cccc(NS(=O)(=O)c3ccc(F)cc3)c2O[C@H]1CN(C)Cc1ccc(C(=O)Nc2ccccc2N)cc1 | inactive: -6.75%
29 | CN(C)CC(=O)Nc1ccc2c(c1)[C@H]1C[C@@H](CC(=O)N3CCc4ccccc4C3)O[C@H](CO)[C@H]1O2 | inactive: 2.38%
30 | CC(C)(C)c1ccc(C(=O)Oc2ccccc2CCC(=O)O)cc1 | inconclusive: 61.3%
31 | CCOC(=O)[C@]12CCC=C1N(CCC1=CCCCC1)C(=O)[C@H](CC(=O)N1CCCC1)C2 | inconclusive: 59.4%
32 | COc1ccccc1N(C)S(=O)(=O)c1ccc(C(=O)NCC(c2ccco2)N2CCCCC2)cc1 (stereo not given) | inconclusive: 21.3%
33 | O=C(C[C@H]1CC[C@H]2[C@@H](COC[C@@H](O)CN2CCC(F)(F)F)O1)NCC1CC1 | inconclusive: 37.6%
34 | COc1ccc(NC(=O)C(c2ccnc3ccccc23)n2c(=O)c(-c3ccccc3)nc3ccccc32)cc1 (stereo not given) | inconclusive: 38.7%
35 | c1ccc(OCCN2CCNCC2)cc1 | inconclusive: 32.6%
36 | N#C[C@@H]1[C@@H](c2ccc(C#Cc3ccccc3F)cc2)[C@@H](CO)N1C(=O)C1CCCCC1 | inconclusive: 21.2%
37 | c1ccc(-c2nc(-c3cccs3)[nH]c2-c2ccccc2)cc1 | inactive: 0.424%
38 | Cc1ccc2nc(Cl)c3cc(C(=O)NCCCN4CCCC4)sc3c2c1 | inactive: 0.208%
39 | COc1ccc(S(=O)(=O)N(C)C[C@H]2OCCCC[C@@H](C)Oc3ccc(NC(=O)CCCN(C)C)cc3C(=O)N([C@H](C)CO)C[C@@H]2C)cc1 | inactive: 6.16%
40 | CCOC(=O)c1c(NC(=O)CSc2ncnc3ccccc23)sc(C)c1C | inconclusive: 61.5%
41 | C=CCC[C@@H](Cc1ccc(F)cc1)C(=O)OCCNC(=O)[C@@H](CC=C)CC(=O)N[C@H](CO)Cc1ccccc1 | active: 44.2%
42 | Cc1cc(NC(=O)CSc2nc3c(cnn3-c3cccc(Cl)c3)c(=O)[nH]2)no1 | inconclusive: 51%
43 | O=C(N/N=C/c1cccnc1)c1cccc(S(=O)(=O)Nc2cccc(Cl)c2)c1 | inconclusive: 31.3%
44 | CSc1nccc(-c2c(-c3ccc(Cl)cc3)noc2C)n1 | inconclusive: 36.7%
45 | CN(C)C(CNC(=O)c1ccc(S(=O)(=O)Nc2ccccc2F)cc1)c1ccco1 (stereo not given) | inconclusive: 25.9%
